Measurements: the supplement of paper PMC8728848
Some of the results follow.

Assays:
Assay in all cases: glycan array binding signal (z-score within array); higher = stronger binding
Conditions in all cases: glycan notation: IUPAC condensed, linker removed
[1] = target: Fuc(a1-2)[GalNAc(a1-3)]Gal(b1-3)GalNAc(b1-3)Gal(a1-4)Gal(b1-4)Glc
Outline: (§1)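 Glycan array data came from 3228 arrays in the Consortium for Functional Glycomics database, and only arrays with an available protein sequence were kept. Glycan names were put into IUPAC-condensed notation, and columns mapping to the same glycan were averaged. The binding signal is a within-array Z-score, averaged across arrays of one protein sequence run at different concentrations or buffers and across linkers. A negative Z-score can be read as non-binding.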

[2] = target: Fuc(a1-2)[GalNAc(a1-3)]Gal(b1-3)GlcNAc
Outline: as §1

[3] = target: Fuc(a1-2)[GalNAc(a1-3)]Gal(b1-3)GlcNAc(b1-2)Man(a1-3)[Fuc(a1-2)[GalNAc(a1-3)]Gal(b1-3)GlcNAc(b1-2)Man(a1-6)]Man(b1-4)GlcNAc(b1-4)GlcNAc
Outline: as §1

[4] = target: Fuc(a1-2)[GalNAc(a1-3)]Gal(b1-3)GlcNAc(b1-2)Man(a1-3)[Fuc(a1-2)[GalNAc(a1-3)]Gal(b1-3)GlcNAc(b1-2)Man(a1-6)]Man(b1-4)GlcNAc(b1-4)[Fuc(a1-6)]GlcNAc
Outline: as §1

[5] = target: Fuc(a1-2)[GalNAc(a1-3)]Gal(b1-3)GlcNAc(b1-3)GalNAc
Outline: as §1

[6] = target: Fuc(a1-2)[GalNAc(a1-3)]Gal(b1-3)GlcNAc(b1-6)GalNAc
Outline: as §1

[7] = target: Fuc(a1-2)[GalNAc(a1-3)]Gal(b1-4)Glc
Outline: as §1

[8] = target: Fuc(a1-2)[GalNAc(a1-3)]Gal(b1-4)GlcNAc
Outline: as §1

[9] = target: Fuc(a1-2)[GalNAc(a1-3)]Gal(b1-4)GlcNAc(b1-2)Man
Outline: as §1

[10] = target: Fuc(a1-2)[GalNAc(a1-3)]Gal(b1-4)GlcNAc(b1-2)Man(a1-3)[Fuc(a1-2)[GalNAc(a1-3)]Gal(b1-4)GlcNAc(b1-2)Man(a1-6)]Man(b1-4)GlcNAc(b1-4)GlcNAc
Outline: as §1

[11] = target: Fuc(a1-2)[GalNAc(a1-3)]Gal(b1-4)GlcNAc(b1-2)Man(a1-3)[Fuc(a1-2)[GalNAc(a1-3)]Gal(b1-4)GlcNAc(b1-2)Man(a1-6)]Man(b1-4)GlcNAc(b1-4)[Fuc(a1-6)]GlcNAc
Outline: as §1

[12] = target: Fuc(a1-2)[GalNAc(a1-3)]Gal(b1-4)GlcNAc(b1-3)Gal(b1-4)GlcNAc
Outline: as §1

[13] = target: Fuc(a1-2)[GalNAc(a1-3)]Gal(b1-4)GlcNAc(b1-3)Gal(b1-4)GlcNAc(b1-3)Gal(b1-4)GlcNAc
Outline: as §1

[14] = target: Fuc(a1-2)[GalNAc(a1-3)]Gal(b1-4)GlcNAc(b1-3)GalNAc
Outline: as §1

[15] = target: Fuc(a1-2)[GalNAc(a1-3)]Gal(b1-4)GlcNAc(b1-3)[Fuc(a1-2)[GalNAc(a1-3)]Gal(b1-4)GlcNAc(b1-6)]GalNAc
Outline: as §1

[16] = target: Fuc(a1-2)[GalNAc(a1-3)]Gal(b1-4)GlcNAc(b1-6)GalNAc
Outline: as §1

[17] = target: Fuc(a1-2)[GalNAc(a1-3)]Gal(b1-4)[Fuc(a1-3)]GlcNAc
Outline: as §1

[18] = target: Fuc(a1-2)[GalNAc(a1-3)]Gal(b1-4)[Fuc(a1-3)]GlcNAc(b1-3)GalNAc
Outline: as §1

[19] = target: Fuc(a1-2)[GalNAc(a1-4)]Gal(b1-4)GlcNAc
Outline: as §1

[20] = target: Fuc(a1-2)[GalNAc(b1-3)]Gal
Outline: as §1

Fuc(a1-3)GlcNAc = target: Fuc(a1-3)GlcNAc
Outline: as §1

[21] = target: Fuc(a1-3)[Gal(b1-4)]Glc6S
Outline: as §1

[22] = target: Fuc(a1-3)[Gal(b1-4)]GlcNAc
Outline: as §1

[23] = target: Fuc(a1-3)[Gal(b1-4)]GlcNAc(b1-2)Man
Outline: as §1

[24] = target: Fuc(a1-3)[Gal(b1-4)]GlcNAc(b1-2)Man(a1-3)[Fuc(a1-3)[Gal(b1-4)]GlcNAc(b1-2)Man(a1-6)]Man(b1-4)GlcNAc(b1-4)GlcNAc
Outline: as §1

[25] = target: Fuc(a1-3)[Gal(b1-4)]GlcNAc(b1-2)Man(a1-3)[Fuc(a1-3)[Gal(b1-4)]GlcNAc(b1-2)Man(a1-6)]Man(b1-4)GlcNAc(b1-4)[Fuc(a1-6)]GlcNAc
Outline: as §1

[26] = target: Fuc(a1-3)[Gal(b1-4)]GlcNAc(b1-2)Man(a1-6)[Gal(b1-4)GlcNAc(b1-2)Man(a1-3)]Man(b1-4)GlcNAc(b1-4)GlcNAc
Outline: as §1

[27] = target: Fuc(a1-3)[Gal(b1-4)]GlcNAc(b1-3)Gal(b1-3)[Fuc(a1-4)]GlcNAc
Outline: as §1

[28] = target: Fuc(a1-3)[Gal(b1-4)]GlcNAc(b1-3)Gal(b1-4)[Fuc(a1-3)]GlcNAc
Outline: as §1

[29] = target: Fuc(a1-3)[Gal(b1-4)]GlcNAc(b1-3)Gal(b1-4)[Fuc(a1-3)]GlcNAc(b1-3)Gal(b1-4)[Fuc(a1-3)]GlcNAc
Outline: as §1

[30] = target: Fuc(a1-3)[Gal(b1-4)]GlcNAc(b1-3)GalNAc
Outline: as §1

[31] = target: Fuc(a1-3)[Gal(b1-4)]GlcNAc(b1-4)Gal(b1-4)[Fuc(a1-3)]GlcNAc
Outline: as §1

[32] = target: Fuc(a1-3)[Gal(b1-4)]GlcNAc(b1-4)Gal(b1-4)[Fuc(a1-3)]GlcNAc(b1-4)Gal(b1-4)[Fuc(a1-3)]GlcNAc
Outline: as §1

[33] = target: Fuc(a1-3)[Gal(b1-4)]GlcNAc(b1-6)GalNAc
Outline: as §1

[34] = target: Fuc(a1-3)[Gal(b1-4)]GlcNAc(b1-6)[Gal(b1-3)GlcNAc(b1-3)]Gal(b1-4)Glc
Outline: as §1

[35] = target: Fuc(a1-3)[Gal(b1-4)]GlcNAc6S
Outline: as §1

[36] = target: Fuc(a1-3)[Gal3S(b1-4)]Glc
Outline: as §1

B1: GST Gap3 (Streptococcus parasanguinis) (protein)
chain: MTKQLISEIYWNEIRKGENYLYGSQIKFQEDLVNFYNPQLASGKPIVTFKSRTNYQGDRHSPDLPILIQGNRYLLEYQIDAVPANSFFLQLDFFNRQAEQIESIVLRNSGESFIFPKDTFTYTLTLMSAGCQSVTYQKFMIYDINDEEKKNHIVENRYLRELLPKDLDLVKNLIEYI
**Q.** Which “glycan array binding signal (z-score)” value [1] does the source give for B1 here?
**A.** Its value is -0.198.

**Q.** And the “glycan array binding signal (z-score)” value [2]?
**A.** Its value is -0.289.

**Q.** And the “glycan array binding signal (z-score)” value [3]?
**A.** The value was 1.06.

**Q.** And the “glycan array binding signal (z-score)” value [4]?
**A.** The value was -0.44.

**Q.** And the “glycan array binding signal (z-score)” value [5]?
**A.** The value was 0.47.

**Q.** What about the “glycan array binding signal (z-score)” value [6] of the same binder?
**A.** Its value is 0.295.

**Q.** What about the “glycan array binding signal (z-score)” value [7] of the same binder?
**A.** Its value is -0.313.

**Q.** And the “glycan array binding signal (z-score)” value [8]?
**A.** Its value is -0.361.

**Q.** And the “glycan array binding signal (z-score)” value [9]?
**A.** Its value is -0.552.

**Q.** And the “glycan array binding signal (z-score)” value [10]?
**A.** Its value is 0.238.

**Q.** And the “glycan array binding signal (z-score)” value [11]?
**A.** Its value is 0.087.

**Q.** What about the “glycan array binding signal (z-score)” value [12] of the same binder?
**A.** Its value is -0.297.

**Q.** And the “glycan array binding signal (z-score)” value [13]?
**A.** Its value is 0.035.

**Q.** What about the “glycan array binding signal (z-score)” value [14] of the same binder?
**A.** Its value is -0.004.

**Q.** What about the “glycan array binding signal (z-score)” value [15] of the same binder?
**A.** Its value is -0.377.

**Q.** And the “glycan array binding signal (z-score)” value [16]?
**A.** Its value is -0.169.

**Q.** And the “glycan array binding signal (z-score)” value [17]?
**A.** Its value is -0.211.

**Q.** And the “glycan array binding signal (z-score)” value [18]?
**A.** The value was 0.634.

**Q.** And the “glycan array binding signal (z-score)” value [19]?
**A.** The value was 0.082.

**Q.** And the “glycan array binding signal (z-score)” value [20]?
**A.** Its value is -0.16.

**Q.** And the “glycan array binding signal (z-score)” value (Fuc(a1-3)GlcNAc)?
**A.** Its value is -0.324.

**Q.** What about the “glycan array binding signal (z-score)” value [21] of the same binder?
**A.** Its value is -0.163.

**Q.** And the “glycan array binding signal (z-score)” value [22]?
**A.** The value was -0.195.

**Q.** What about the “glycan array binding signal (z-score)” value [23] of the same binder?
**A.** Its value is 0.397.

**Q.** And the “glycan array binding signal (z-score)” value [24]?
**A.** The value was 0.031.

**Q.** And the “glycan array binding signal (z-score)” value [25]?
**A.** The value was 0.845.

**Q.** What about the “glycan array binding signal (z-score)” value [26] of the same binder?
**A.** Its value is -0.063.

**Q.** And the “glycan array binding signal (z-score)” value [27]?
**A.** The value was -0.188.

**Q.** What about the “glycan array binding signal (z-score)” value [28] of the same binder?
**A.** Its value is 0.033.

**Q.** What about the “glycan array binding signal (z-score)” value [29] of the same binder?
**A.** The value was -0.212.

**Q.** What about the “glycan array binding signal (z-score)” value [30] of the same binder?
**A.** Its value is 0.287.

**Q.** What about the “glycan array binding signal (z-score)” value [31] of the same binder?
**A.** Its value is -0.013.

**Q.** And the “glycan array binding signal (z-score)” value [32]?
**A.** Its value is -0.131.

**Q.** What about the “glycan array binding signal (z-score)” value [33] of the same binder?
**A.** The value was 1.14.

**Q.** What about the “glycan array binding signal (z-score)” value [34] of the same binder?
**A.** The value was -0.245.

**Q.** What about the “glycan array binding signal (z-score)” value [35] of the same binder?
**A.** Its value is 0.

**Q.** What about the “glycan array binding signal (z-score)” value [36] of the same binder?
**A.** The value was 1.83.
